# Measured values: paper PMC5312596, “A novel Pfs38 protein complex on the surface of Plasmodium falciparum blood-stage merozoites” (Malaria Journal, 2017)
# The chains behind the UniProt entries cited, without tags or fusion partners. Residues count along the entry.
# UniProt Q9TY95, residues 23-997: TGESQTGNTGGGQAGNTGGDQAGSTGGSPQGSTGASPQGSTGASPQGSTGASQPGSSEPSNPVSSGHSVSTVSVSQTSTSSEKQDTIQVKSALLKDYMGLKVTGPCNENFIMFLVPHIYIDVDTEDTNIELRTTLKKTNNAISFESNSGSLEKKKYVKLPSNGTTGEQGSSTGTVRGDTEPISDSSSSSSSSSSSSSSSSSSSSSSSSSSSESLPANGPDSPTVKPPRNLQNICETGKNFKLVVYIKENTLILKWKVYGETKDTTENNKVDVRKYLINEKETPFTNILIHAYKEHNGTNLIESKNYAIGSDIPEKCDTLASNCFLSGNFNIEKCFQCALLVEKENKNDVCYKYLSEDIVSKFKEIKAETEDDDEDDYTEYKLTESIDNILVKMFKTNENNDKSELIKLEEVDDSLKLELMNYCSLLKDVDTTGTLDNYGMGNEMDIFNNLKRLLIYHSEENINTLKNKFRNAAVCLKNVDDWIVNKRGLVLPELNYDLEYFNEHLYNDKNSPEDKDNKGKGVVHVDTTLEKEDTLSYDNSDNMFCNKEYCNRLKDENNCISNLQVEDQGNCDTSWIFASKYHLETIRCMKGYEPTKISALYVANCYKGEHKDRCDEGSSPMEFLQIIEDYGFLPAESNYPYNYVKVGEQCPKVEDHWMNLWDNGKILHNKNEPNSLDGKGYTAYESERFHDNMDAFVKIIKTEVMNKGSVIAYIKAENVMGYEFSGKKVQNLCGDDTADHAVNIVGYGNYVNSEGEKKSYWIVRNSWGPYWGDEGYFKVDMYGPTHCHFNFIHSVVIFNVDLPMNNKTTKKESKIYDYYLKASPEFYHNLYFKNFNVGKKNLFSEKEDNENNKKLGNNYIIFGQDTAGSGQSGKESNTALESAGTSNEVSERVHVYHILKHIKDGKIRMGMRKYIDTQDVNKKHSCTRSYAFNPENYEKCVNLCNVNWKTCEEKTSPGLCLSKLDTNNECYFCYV
# These are yes or no findings as the source states them, for the method shown. In cells and extracts the contact can be indirect. These calls come from enrichment with a bait or labelling near it, and not all partners need be listed.
# Target: T1, native Pfs38 (Plasmodium falciparum 3D7 (endogenous in cultured parasites)) (UniProt Q8I423)
# T1 sequence: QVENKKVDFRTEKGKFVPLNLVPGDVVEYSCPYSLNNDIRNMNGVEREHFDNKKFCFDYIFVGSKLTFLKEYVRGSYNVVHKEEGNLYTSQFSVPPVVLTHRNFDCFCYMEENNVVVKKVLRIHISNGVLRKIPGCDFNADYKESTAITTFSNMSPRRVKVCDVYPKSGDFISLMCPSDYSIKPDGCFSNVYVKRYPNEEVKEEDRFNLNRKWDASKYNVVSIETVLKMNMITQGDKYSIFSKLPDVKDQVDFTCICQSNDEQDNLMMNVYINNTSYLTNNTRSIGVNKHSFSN
# Assay: affinity purification with mass spectrometry; late schizont (44-46 hpi) lysate in IP lysis buffer (1% NP-40, 150 mM NaCl, pH 7.4); polyclonal anti-Pfs38, anti-PfMSP-1_(65), anti-Pfs12 or anti-Pfs41 antibody on Protein-A Agarose, 12 h at 4 °C; eluate digested with trypsin, LC-MS/MS; pre-immune antibody as control
substance,measurement,value
native Serine repeat antigen 5 (SERA-5) (from UniProt Q9TY95 23-997),binding,binds
